Assay results published in paper PMC8215750.
No constants are given. Whether binding was seen depends on the method and setting. Binding seen in cells or lysates may run through a third protein. A result given as binding can be weak or reduced; the word gives no strength.

Molecular target: T1, myoglobin (rat (endogenous in Sprague-Dawley rat kidney)) (UniProt Q9QZ76)
T1 sequence: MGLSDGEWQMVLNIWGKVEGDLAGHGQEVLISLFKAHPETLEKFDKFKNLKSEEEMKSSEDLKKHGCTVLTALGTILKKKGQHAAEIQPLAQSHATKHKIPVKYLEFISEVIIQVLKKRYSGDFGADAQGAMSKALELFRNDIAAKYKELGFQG
Assay: co-IP; kidneys of sham and CS rats at 12 h lysed in IP lysis buffer; 1 ug monoclonal anti-myoglobin antibody and protein-A magnetic beads, 4 °C overnight; washed three times; Western blotting with anti-RIG-I

binding: binds
Substance: Retinoic acid-inducible gene I
